Test results as given in patent publication US20160108110A1 (Novartis, published 2016).
Where a chain is given by its changes, count along the chain named. These are yes or no findings as the source states them, for the method shown. Some binding calls cover weakened binding; strength is not graded here. Sequences can lack the tags named with a protein. Blank lines part the entries; values can stand above or below the binder they belong to.

Biological target: T1, Human ANGPTL4(26-161)-FLAG-His6-Avi (human)
T1 sequence (chain, biotin on the C-terminal Avi tag in the biotinylated preparation (ELISA)): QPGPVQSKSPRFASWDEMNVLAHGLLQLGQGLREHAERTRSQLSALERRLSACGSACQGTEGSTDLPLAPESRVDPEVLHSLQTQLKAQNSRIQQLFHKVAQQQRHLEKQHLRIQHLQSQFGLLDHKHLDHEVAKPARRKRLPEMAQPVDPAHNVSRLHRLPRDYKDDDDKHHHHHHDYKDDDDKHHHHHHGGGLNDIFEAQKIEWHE
Test: direct ELISA on streptavidin-coated MSD plate: biotinylated antigen immobilised at 1 nM, antibody at 1 nM, detection with Sulfo-tagged goat anti-human IgG

B3: MOR021795 (antibody, human IgG1, lambda, V domains shown)
VH: QVQLVQSGAEVKKPGSSVKVSCKASGGTFNSYAISWVRQAPGQGLEWMGGIIPLFGFANYAQKFQGRVTITADESTSTAYMELSSLRSEDTAVYYCARESYDPYAFDVWGQGTLVTVSS
VL: DIELTQPPSVSVSPGQTASITCSGDNLGKYSASWYQQKPGQAPVLVIHQDNNRPSGIPERFSGSNSGNTATLTISGTQAEDEADYYCASRAHSMHVVFGGGTKLTVLG
notes: human IgG1
binding: binds

B4: MOR021792 (antibody, human IgG1, lambda, V domains shown)
VH: QVQLLESGGGLVQPGGSLRLSCAASGFTFSDYAMDWVRQAPGKGLEWVSKISYDGSYTYYADSVKGRFTISRDNSKNTLYLQMNSLRAEDTAVYYCARPSMSYYIIPAGFDVWGQGTLVTVSS
VL: DIELTQPPSVSVSPGQTASITCSGDALGVKRASWYQQKPGQAPVLVIYKDNNRPSGIPERFSGSNSGNTATLTISGTQAEDEADYYCSVRTWSMNLYVFGGGTKLTVLG
binding: binds

B5: MOR021798 (antibody, human IgG1, lambda, V domains shown)
VH: QVQLLESGGGLVQPGGSLRLSCAASGFTFSDYALHWVRQAPGKGLEWVSRISYMGSSTYYADSVKGRFTISRDNSKNTLYLQMNSLRAEDTAVYYCAREHYYSSPMGGVAVDNWGQGTLVTVSS
VL: DIVLTQPPSVSGAPGQRVTISCSGSSSNIGYNTVSWYQQLPGTAPKLLIYSNNIRPSGVPDRFSGSKSGTSASLAITGLQAEDEADYYCSSWDFLIKSLVFGGGTKLTVLG
notes: human IgG1
binding: binds

Next, values leading:

binding: binds
B1: MOR021823 (antibody, human IgG1, kappa, V domains shown)
VH: QVQLLESGGGLVQPGGSLRLSCAASGFTFSSYYLHWVRQAPGKGLEWVSYISGDGSSTYYADSVKGRFTISRDNSKNTLYLQMNSLRAEDTAVYYCARERSYAHDHWGQGTLVTVSS
VL: DIQMTQSPSSLSASVGDRVTITCRASQDIYIDLNWYQQKPGKAPKLLIYAASKLQSGVPSRFSGSGSGTDFTLTISSLQPEDFATYYCQQGYFLPQTFGQGTKVEIKR
notes: human IgG1

binding: binds
B2: MOR021830 (antibody, human IgG1, kappa, V domains shown)
VH: QVQLLESGGGLVQPGGSLRLSCAASGFTFSSYWMHWVRQAPGKGLEWVSGISYDGSSTNYADSVKGRFTISRDNSKNTLYLQMNSLRAEDTAVYYCARDSYIYDLHWGFDNWGQGTLVTVSS
VL: B1 VL with Y30S, I31S, D32Y, K53R, G91S, F93T, L94H, Q96Y
notes: human IgG1

binding: binds
B6: MOR021800 (antibody, human IgG1, lambda, V domains shown)
VH: QVQLVQSGAEVKKPGESLKISCKGSGYSFSTYWISWVRQMPGKGLEWMGIIDPSNSDTRYSPSFQGQVTISADKSISTAYLQWSSLKASDTAMYYCARVYGYVYMDVWGQGTLVTVSS
VL: DIELTQPPSVSVSPGQTASITCSGDNLGKKYAYWYQQKPGQAPVLVIYDKTKRPSGIPERFSGSNSGNTATLTISGTQAEDEADYYCASYDWYSSSYVFGGGTKLTVLG
notes: human IgG1
